## Microarray screen: hit calls

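Each compound is printed as two spots on a slide made to bind it covalently, so it has no test concentration; the read-out is fluorescence of the bound, labelled oligonucleotide. For the PreQ1, TPP and SAM-II riboswitches the laboratory earlier reported (doi:10.1038/s41467-019-09493-3) 1 µM RNA, 2 h, and a rule that included a mean Z-score above 3 (spot signal-to-noise against the whole library), a score well above that on a control array, and duplicate spots agreeing (coefficient of variation under 100). The data file gives only the calls; its cut-offs may differ, and compounds hitting several targets are kept. A missing hit is not proof of no binding, and a hit is not a measured affinity.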 “1” means called a hit, “0” means screened and not called a hit. The compounds are a random part of those screened. A target missing from an entry has no call listed here.

Targets, with sequences 5′ to 3′:
T1: TPP riboswitch RNA three-way junction, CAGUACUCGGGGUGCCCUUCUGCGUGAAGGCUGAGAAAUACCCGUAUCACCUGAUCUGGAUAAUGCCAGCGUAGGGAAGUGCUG. Hit rate about 0.7% of about 24,000 compounds.
T2: SAM-II riboswitch RNA pseudoknot, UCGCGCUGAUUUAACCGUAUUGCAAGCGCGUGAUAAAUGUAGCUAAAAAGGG. Hit rate about 1% of about 21,000 compounds.
T3: PreQ1 riboswitch RNA pseudoknot, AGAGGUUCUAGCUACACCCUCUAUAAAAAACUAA. From B. subtilis. Hit rate about 0.7% of about 24,000 compounds.

{"smiles": "Cc1nc(-c2cccc3cnccc23)n(CCO)n1", "T1": "0", "T2": "0", "T3": "0"}
{"smiles": "C=CCNc1oc(-c2ccc(F)cc2)nc1S(=O)(=O)c1ccc(Cl)cc1", "T1": "0", "T3": "0"}
{"smiles": "COc1cc(C[C@@H](CO)[C@H](CO)Cc2ccc(O)c(OC)c2)ccc1O", "T1": "0", "T2": "0", "T3": "0"}
{"smiles": "COC(=O)C1=CC(=O)N2CCN=C2S1", "T1": "0", "T2": "0", "T3": "0"}
{"smiles": "O=C1CN(CC2(O)CCNC2)CCN1CCc1ccccc1", "stereo": "stereo not shown", "T1": "0", "T2": "0", "T3": "0"}
{"smiles": "Cn1c(-c2ccc(Br)cc2)cnc1NCc1ccc(F)cc1", "T1": "0", "T2": "0", "T3": "0"}
{"smiles": "O=C(CC1C=Cc2ccccc2N1C(=O)c1ccccc1)c1ccccc1", "stereo": "stereo not shown", "T1": "0", "T2": "0", "T3": "0"}
{"smiles": "Fc1ccc(NCc2cn(-c3ccccc3)nc2-c2cccs2)c(F)c1", "T1": "0", "T3": "0"}
{"smiles": "OC(Cn1ccc2ccccc21)Cn1cnc2ccccc21", "stereo": "stereo not shown", "T1": "0", "T2": "0", "T3": "0"}
{"smiles": "C=CCn1c(-c2c(-c3ccccc3)ncn2CCO)nc2ccccc21", "T1": "0", "T2": "0", "T3": "0"}
{"smiles": "COc1ccc(C(=O)c2c(N)nc3n2CCCC3)cc1", "T1": "0", "T2": "0", "T3": "0"}
{"smiles": "N#CC1=C(N)OC2=C(C(=O)CC(c3ccccc3)C2)C1c1ccccc1F", "stereo": "stereo not shown", "T1": "0", "T2": "0", "T3": "0"}
{"smiles": "COc1ccc(C(O)c2nccn2Cc2ccccc2)cc1", "stereo": "stereo not shown", "T1": "0", "T2": "0", "T3": "0"}
{"smiles": "Cc1cccc(OCC(O)Cn2c(CO)nc3ccccc32)c1", "stereo": "stereo not shown", "T1": "0", "T2": "0", "T3": "0"}
{"smiles": "NS(=O)(=O)c1ccsc1CO", "T1": "0", "T2": "0", "T3": "0"}
{"smiles": "O=C(NCC(CO)Cc1ccco1)Nc1cccc(NC(=O)C2CCCC2)c1", "stereo": "stereo not shown", "T1": "0", "T2": "0", "T3": "0"}
{"smiles": "COc1cc2c3c(c1)C1(C(=O)N3C(C)(C)C=C2C)C(C#N)=C(N)Oc2c1c(=O)oc1ccccc21", "stereo": "stereo not shown", "T1": "0", "T2": "0", "T3": "0"}
{"smiles": "Cn1c(=O)c2c(nc(NCc3ccccc3)n2CCC#N)n(C)c1=O", "T1": "0", "T2": "0", "T3": "0"}
{"smiles": "O=C1CC(NCc2ccc3c(c2)OCO3)C(=O)N1c1ccc2c(c1)OCO2", "stereo": "stereo not shown", "T1": "0", "T2": "0", "T3": "0"}
{"smiles": "CCOC(=O)C1CN(Cc2ccccc2)CCC12C(C#N)=C(N)Oc1n[nH]c(C)c12", "stereo": "stereo not shown", "T1": "0", "T2": "0", "T3": "0"}

Some entries from above, unchanged:

{"smiles": "O=C1CC(NCc2ccc3c(c2)OCO3)C(=O)N1c1ccc2c(c1)OCO2", "stereo": "stereo not shown", "T1": "0", "T2": "0", "T3": "0"}
{"smiles": "C=CCNc1oc(-c2ccc(F)cc2)nc1S(=O)(=O)c1ccc(Cl)cc1", "T1": "0", "T3": "0"}

From ROBIN, a set of small-molecule microarray screens (doi:10.1002/anie.202211358).